Experimental data reported in patent US20070066837A1, “Podophyllotoxin derivatives as antitumor agents” (priority 2003, published 2007).
Some results were stated once for a whole list of compounds, not compound by compound. For at least one compound, name, drawing or mass did not settle the structure.

These compounds were tested on 6 human cancer cell lines comprised of different tumor types (assay: In vitro cytotoxicity screen (sulphorhodamine B, NCI strategy), 48 hrs incubation). Conditions: about 48 hrs incubation, sulphorhodamine B staining, OD at 490 nm, read-out: GI50 (concentration which inhibits the cell growth by 50%).
Type: cell-based

Row | SMILES | GI50 [µM]
1 | COc1cc([C@@H]2c3cc4c(cc3[C@@H](NC(=O)c3ccccc3C(=O)c3ccc(C)cc3)[C@@H]3COC(=O)[C@H]23)OCO4)cc(OC)c1OC [Compound 1, 4β-(4″-Methylbenzophenone-2″-formyl)aminopodophyllotoxin] | < 50
2 | COc1cc([C@@H]2c3cc4c(cc3[C@@H](NC(=O)c3c(C(=O)c5ccccc5)ccc(C)c3Cl)[C@H]3COC(=O)[C@H]23)OCO4)cc(OC)c1OC [Compound 2, 4β-(3″-chloro-4″-methylbenzophenone-2″-formyl)amino podophyllotoxin] | < 50
3 | COc1cc([C@@H]2c3cc4c(cc3[C@@H](NC(=O)c3cc(Cl)ccc3C(=O)c3ccccc3)[C@H]3COC(=O)[C@H]23)OCO4)cc(OC)c1OC [Compound 3, 4β-(4″-Chlorobenzophenone-2″-formyl)amino podophyllotoxin] | < 50
4 | COc1cc(C2c3cc4c(cc3C(NC(=O)c3cccnc3Cl)C3COC(=O)C23)OCO4)cc(OC)c1OC (stereo not drawn) [Compound 4, 4β-(2″-Chloropyridine-3″-formyl)amino podophyllotoxin] | < 50
5 | COc1cc([C@@H]2c3cc4c(cc3[C@@H](NC(=O)c3ccc(Cl)nc3)[C@H]3COC(=O)[C@H]23)OCO4)cc(OC)c1OC [Compound 5, 4β-(6″-Chloropyridine-3″-formyl)amino podophyllotoxin] | < 50
6 | COc1cc([C@@H]2c3cc4c(cc3[C@@H](NC(=O)c3cc(Cl)ccc3C(=O)c3ccccc3)[C@H]3COC(=O)[C@H]23)OCO4)cc(OC)c1O [Compound 8, 4β-(4″-Chlorobenzophenone-2″-formyl)amino-4′-O-demethylepipodophyllotoxin] | < 50
7 | COc1cc([C@@H]2c3cc4c(cc3[C@@H](NC(=O)c3cccnc3Cl)[C@@H]3COC(=O)[C@H]23)OCO4)cc(OC)c1O [Compound 9, 4β-(2″-Chloropyridine-3″-formyl)amino-4′-O-demethylepipodophyllotoxin] | < 50
8 | COc1cc([C@@H]2c3cc4c(cc3[C@@H](NS(=O)(=O)c3ccccc3)[C@@H]3COC(=O)[C@H]23)OCO4)cc(OC)c1OC [Compound 11, 4β-(Benzenesulphonyl)amino podophyllotoxin] | < 50
9 | COc1cc([C@@H]2c3cc4c(cc3[C@@H](Nc3nc5ccccc5s3)[C@H]3COC(=O)[C@H]23)OCO4)cc(OC)c1OC [Compound 16, 4-β-(Benzothiazole-2″-amino)podophyllotoxin] | < 50
10 | COc1cc([C@@H]2c3cc4c(cc3[C@@H](Nc3nc5ccc(F)cc5s3)[C@H]3COC(=O)[C@H]23)OCO4)cc(OC)c1OC [Compound 17, 4β-(6″-Fluorobenzothiazole-2″-amino)podophyllotoxin] | < 50
11 | COc1cc([C@@H]2c3cc4c(cc3[C@@H](NC(=O)CCl)[C@@H]3COC(=O)[C@H]23)OCO4)cc(OC)c1OC [Compound 20, 4β-(2″-Chloroacetamido)podophyllotoxin] | < 50
12 | COc1cc([C@@H]2c3cc4c(cc3[C@@H](NC(=O)CN3CCOCC3)[C@H]3COC(=O)[C@H]23)OCO4)cc(OC)c1OC [Compound 21, 4β-[2″-(1,4-Oxazinan-4-yl)acetamido]podophyllotoxin] | < 50
